Test results as given in patent US5306824A, “Biotinylated isocoumarins” (Georgia Tech Research Corporation, priority 1992, dated 1994).
For at least one compound, name, drawing or mass did not settle the structure.

By UniProt entry, the sequences of proteins in these tests, tags left out. Residues count along the entry.
UniProt P00772, 27-266: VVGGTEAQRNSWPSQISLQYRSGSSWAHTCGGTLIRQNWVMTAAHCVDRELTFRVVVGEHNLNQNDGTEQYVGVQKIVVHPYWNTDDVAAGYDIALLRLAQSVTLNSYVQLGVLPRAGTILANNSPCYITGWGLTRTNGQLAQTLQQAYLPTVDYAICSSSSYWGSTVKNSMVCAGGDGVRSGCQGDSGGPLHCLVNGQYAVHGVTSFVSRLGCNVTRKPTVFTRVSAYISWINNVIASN

Target: PPE (Sus scrofa, UniProt P00772)
Assay: Elution of inhibited PPE from avidin-agarose column with NH2OH
Format: biochemical, porcine
Procedure: Elution of inhibited PPE by 7-[6-(6-biotinylaminocaproyl)aminocaproyl]amino-4-chloro-3-methoxyisocoumarin from avidin-agarose column with NH2 OH.
PPE (1 mg, […]) was inhibited by biotinylated isocoumarin (0.5 mmole) in 0.1M Hepes, 0.5M NaCl, pH 7.5 buffer at 25° C. for 10 min, 7% of residual enzyme activity was found. Excess of inhibitors was removed by Sephadex G-25 column and the inhibited PPE was eluted with 0.1M acetate, 0.5M NaCl, pH 5.0 buffer and had 16% of enzyme activity. This inhibited enzyme solution was then applied on the avidin-agarose column and 34% of protein went through (measured by optical density at 280 nm). The column was washed with pH 5.0 acetate buffer, then eluted with 0.1M Hepes, 0.5M NaCl, and 0.5M NH2 OH, pH 7.5 buffer and 37% of protein was eluted out (measured by OD280) from the column. In these protein fractions, 40% of PPE activity was detected.

SMILES: COc1oc(=O)c2cc(NC(=O)CCCCCNC(=O)CCCCCNC(=O)CCCCC3SCC4NC(=O)NC43)ccc2c1Cl (centres unmarked) [Compound 6, 7-[6-(6-biotinylaminocaproyl)aminocaproyl]-amino-4-chloro-3-methoxyisocoumarin]
- protein eluted from avidin-agarose column with NH2OH (0.1M Hepes, 0.5M NaCl, 0.5M NH2OH, pH 7.5, OD280): 37%
- protein that went through the avidin-agarose column (measured by optical density at 280 nm): 34%
